# Test results published in PubChem BioAssay AID2685 (National Center for Advancing Translational Sciences (NCATS), 2010).
# The list shows a part of the results. Shown are side measurements of this screen, not its main read-out; they come without a call. The list favours compounds with an active or inconclusive main result. The note in brackets gives the kind of curve behind each potency; many fits are weak.
# Experiment: qHTS Assay for Lipid Storage Modulators in Drosophila S3 Cells;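 for cell number change: cells counted by Cell Tracker Red CMTPX staining in the red channel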
# Conditions: BODIPY lipid droplet fluorescence, 18-24 h; for cell number change: measured here: cell count max response, cells fed with added oleic acid
# Procedure, shortened: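 Laser-scanning cytometry quantifies lipid droplet accumulation (500–530 nm total intensity; droplet/cell object ratio) in oleic acid-fed (400 uM added) Drosophila S3 cells treated with a concentration series. 20 uM Triacsin C defined 100% inhibition.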
# [1] = measured here: lipid fluorescence (Fed channel) AC50, cells fed with added oleic acid
# [2] = measured here: cell number channel AC50, cells fed with added oleic acid
Structure (SMILES),cell number change [%],AC50 [1],AC50 [2]
COC(=O)c1ccc(CNC(=O)CCc2c[nH]c3ccccc23)cc1,8.56,"18.4 µM [rising, partial curve, poor fit]",–
COc1cccc(CN(C)C(=O)C2CCN(S(=O)(=O)c3ccc(C)cc3)CC2)c1OC,-1.55,"0.146 µM [falling, full curve, poor fit]",–
CC(c1ccc(F)cc1)n1c(-c2cccs2)n[nH]c1=S (configuration not stated),85,–,–
Cc1cccc(Cn2c(C)c(C)c3cc(C(=O)NCCN4CCOCC4)ccc32)c1,17.7,–,–
COc1ccc(OC)c(C(=O)c2nc3c(n2O)CCCCC3)c1,-29.5,"6.51 µM [falling, single point]","0.291 µM [falling, full curve, poor fit]"
COc1ccc(/C(N)=N/OC(=O)CSc2ccccc2)cc1OC,3.78,"1.64 µM [rising, full curve]","2.31 µM [rising, partial curve]"
Cc1ccc([N+](=O)[O-])cc1N/C=C/C(=O)c1ccco1,–,"4.61 µM [falling, partial curve]",–
CCOC(=O)c1csc(NC(C)=O)n1,-32.8,"2.59 µM [falling, full curve]","2.91 µM [falling, full curve]"
C/C(=N\NC(=O)Cc1ccccc1)c1ccc(Cl)s1,23,–,–
COc1ccc(C(=O)Oc2ccc(F)cc2C(=O)/C=C/c2ccc(OC)c(OC)c2)cc1,6.09,"29.1 µM [falling, single point]",–
CCC(Oc1ccccc1OC)C(=O)Nc1ccc2c(c1)OCO2 (configuration not stated),-1.32,–,–
CCc1cc(=O)oc2cc(C)cc(OCC(=O)NCc3cccnc3)c12,-14.2,"6.51 µM [falling, single point]",–
COC(=O)c1cc(NC(=S)Nc2cc(Cl)cc(Cl)c2)cc(C(=O)OC)c1,-36.6,"2.06 µM [rising, single point]","29.1 µM [falling, single point]"
CC(=O)Nc1cccc(-c2nnc(-c3ccccc3)o2)c1,–,"0.231 µM [rising, full curve]","2.31 µM [rising, partial curve]"
Cc1cc(C)nc(Nc2n[nH]c(-c3ccc(N)cc3)n2)n1,23.5,"1.64 µM [rising, partial curve]","0.461 µM [rising, full curve, poor fit]"
CCC(c1nnnn1C1CCCCC1)N1CCN(C(=O)c2ccco2)CC1 (configuration not stated),21.8,"6.51 µM [falling, single point]",–
CCC(C)C(Nc1ccc(C(=O)OC)cc1[N+](=O)[O-])C(=O)OC (configuration not stated),-17.2,"6.51 µM [rising, single point]",–
CCc1ccc(N2CC(C(=O)Nc3ccc(S(=O)(=O)Nc4nccs4)cc3)CC2=O)cc1 (configuration not stated),-18.4,"5.62 µM [falling, single point]",–
CCn1c(SCC(=O)N(C)C2CCCCC2)nc2cc(S(N)(=O)=O)ccc21,-9.33,–,–
O=C(CSc1nnc(Cc2ccccc2)o1)c1ccc(F)cc1,9.82,–,–
O=C(O)c1cccc(Sc2cc(Cl)ccc2C(=O)O)c1,-32.3,"25.9 µM [falling, single point]",–

Structure (SMILES),cell number change [%],AC50 [1],AC50 [2]
CN(C)CCOC(=O)c1ccc2[nH]c3c(c2c1)CSCC3,15.3,"11.6 µM [rising, single point]",–
N#Cc1nc(COc2ccccc2F)oc1NCc1ccc(F)cc1,-6.49,–,–
CC(=O)c1ccc(N2CCN(c3ncccn3)CC2)c([N+](=O)[O-])c1,-17.6,–,–
CC(=O)c1ccc(OCC(=O)NC(=O)NC2CCCCC2)cc1,-34.3,"29.1 µM [falling, single point]","29.1 µM [falling, single point]"
C=CCNc1nc(Cl)nc(Nc2ccc(OC)cc2)n1,17.2,–,–
Cc1ccc(NC(=O)CN2C(=S)NC(C)(C)CC2C)cc1Cl (configuration not stated),–,"2.06 µM [rising, partial curve]","6.51 µM [rising, single point]"
CC1(C)NC(=O)N(CCOc2ccc([N+](=O)[O-])cc2)C1=O,11.6,"8.91 µM [rising, partial curve, poor fit]",–
N#CC(C#N)=Cc1cc2ccccc2nc1N1CCCCC1,-17.9,–,–
COc1ccccc1Nc1cc(C)nc2c(C)ccc([N+](=O)[O-])c12,-62.5,"23.1 µM [falling, single point]","25.9 µM [falling, single point]"
O=C1COc2ccc(S(=O)(=O)NCCc3ccc(Cl)cc3)cc2N1,11.8,"4.47 µM [rising, partial curve, poor fit]",–
Cc1ccccc1CCN1CCCC(CN(C)CC(C)(C)C)C1 (configuration not stated),15,"0.0731 µM [rising, full curve, poor fit]",–
CCNS(=O)(=O)c1ccc(CCC(=O)Nc2ccc3c(c2)OCO3)cc1,-28,"0.58 µM [falling, single point]",–
O=C(Nc1ccc(-n2cnnn2)cc1)c1cccc(S(=O)(=O)N2CCCC2)c1,-14.9,"16.4 µM [rising, single point]",–
Cc1ccccc1NC(=O)c1sc(Cl)nc1-c1ccccc1,6.64,–,"2.59 µM [rising, partial curve]"
O=C(NC(=S)NNC(=O)c1ccccc1O)c1ccccc1,10.6,"29.1 µM [falling, single point]",–
COc1ccc(C2NC(=O)NC(C)=C2C(=O)OCc2ccccc2)cc1 (configuration not stated),-22.3,–,–
O=C1N(c2ccccc2)CCN1c1ccccc1,10.9,"2.31 µM [rising, partial curve, poor fit]",–
CCCC(=O)N(c1ccc2oc(=O)sc2c1)S(=O)(=O)c1ccccc1,6.43,"0.461 µM [falling, partial curve, poor fit]","0.13 µM [falling, full curve, poor fit]"
O=C(/C=C/c1ccccc1)NCCSCc1ccc(Cl)cc1,-1.22,"4.11 µM [falling, partial curve, poor fit]","6.51 µM [rising, single point]"
CCCCCC(=O)Nc1cc(S(=O)(=O)N2CCOCC2)ccc1N1CCCC1,-7.73,–,–
CC(=O)c1ccc2c(c1)OCCOCCOCCO2,-15.4,–,–

Structure (SMILES),cell number change [%],AC50 [1],AC50 [2]
CC(Sc1nnc(-c2cccs2)n1Cc1ccccc1)C(=O)NCc1ccc2c(c1)OCO2 (configuration not stated),153,–,"29.1 µM [rising, single point]"
O=c1c2nnn(Cc3ccccc3)c2ncn1C/C=C/c1ccccc1,–,–,"0.291 µM [rising, single point]"
O=C(CCC(=O)N1CCN(S(=O)(=O)c2ccc(Cl)cc2)CC1)NCc1ccccc1,–,–,"0.259 µM [falling, full curve, poor fit]"
COc1cc2nc(N3CCN(C(=O)C4COc5ccccc5O4)CC3)nc(N)c2cc1OC (configuration not stated),-35.2,"0.231 µM [rising, full curve]","18.4 µM [falling, single point]"
C/C(Cl)=C\Cn1c(O)c(N=O)c2ccccc21,-34.5,"0.164 µM [falling, full curve]","7.31 µM [falling, partial curve]"
CC(C)n1c(NCc2cc(Cl)ccc2O)nc2ccccc21,-51.5,"29.1 µM [falling, single point]","23.1 µM [falling, single point]"
COc1cc(C=O)ccc1OCCOCCOc1ccc(Cl)cc1,89.5,"16.4 µM [rising, partial curve]","5.8 µM [rising, partial curve]"
Cc1ccc(C)c(NC(=S)N(CCN(C)C)C(C)c2ccccn2)c1 (configuration not stated),-19.3,"6.51 µM [falling, partial curve, poor fit]",–
CN(Cc1ccccc1)S(=O)(=O)CCNC(=O)c1ccc2c(c1)OCO2,-8.87,–,–
CCC(=O)NC(c1cccs1)c1cc([N+](=O)[O-])c2cccnc2c1OC (configuration not stated),41.3,–,"23.1 µM [rising, single point]"
COCCC(=O)N1CCC(Oc2ccc(C(=O)N3CCCC(COC)C3)cc2)CC1 (configuration not stated),5.25,"18.4 µM [rising, partial curve, poor fit]",–
COc1cc(NC(=O)C2CC(c3cccc(OC)c3OC)=NO2)cc(OC)c1OC (configuration not stated),–,–,"5.17 µM [rising, single point]"
Nc1cc(-c2ccc(Br)cc2)nn1S(=O)(=O)c1cccc2nsnc12,–,"0.731 µM [falling, single point]",–
COc1ccc2cc(CCNC(=O)C(C)C)c(=O)[nH]c2c1,–,"0.0731 µM [rising, single point]",–
COc1ccc(C2=NS(=O)(=O)N(C)C(C(=O)NC(C)c3ccccc3)=C2)cc1OC (configuration not stated),-19.3,"25.9 µM [falling, partial curve, poor fit]",–
Cc1cc(-c2nnc(SCc3ccccn3)o2)no1,7.52,"2.31 µM [rising, partial curve]",–
O=C1CCCC2=C1C1(CCCCC1)N=C(Nc1nc3ccccc3o1)N2,-26.3,"18.4 µM [falling, partial curve]",–
CCc1cc[n+](C2=C([O-])c3ccccc3C(=O)/C2=N\S(=O)(=O)c2cccs2)cc1,–,"16.4 µM [falling, single point]",–
COc1ccc(CNC(=S)N/N=C(\C)c2ccc(OC)cc2)cc1,4.68,–,–
COCCNC(=O)CN(C(=O)CCC(=O)Nc1ccccn1)c1ccc(F)c(Cl)c1,10.3,–,–
CC(=O)c1ccc(NC(=O)CSc2nnc(-c3ccncc3)n2C2CC2)cc1,-30,"29.1 µM [falling, single point]","32.6 µM [falling, single point]"

# 4 neighbouring compounds already listed:
Structure (SMILES),cell number change [%],AC50 [1],AC50 [2]
CCc1cc[n+](C2=C([O-])c3ccccc3C(=O)/C2=N\S(=O)(=O)c2cccs2)cc1,–,"16.4 µM [falling, single point]",–
COc1ccc(CNC(=S)N/N=C(\C)c2ccc(OC)cc2)cc1,4.68,–,–
COCCNC(=O)CN(C(=O)CCC(=O)Nc1ccccn1)c1ccc(F)c(Cl)c1,10.3,–,–
CC(=O)c1ccc(NC(=O)CSc2nnc(-c3ccncc3)n2C2CC2)cc1,-30,"29.1 µM [falling, single point]","32.6 µM [falling, single point]"
